Out of some 300,000 compounds screened, about 5,400 (1.8%) were called active. The shares of active, inactive and inconclusive entries below differ from those in the screen. Calls come from the whole dose curve; tested in HEK293 cells. Potencies of inconclusive entries are doubtful fits and often do not repeat.
Experiment: qHTS for inhibitors of binding or entry into cells for Marburg Virus
Conditions: Marburg virus pseudotyped entry inhibition, cell reporter; activity change, negative = inhibition: at 37.8 µM (top of the series) unless noted
% is set by controls: 0 for no effect and ±100 for the full control effect; potency is the fitted concentration of half-maximal effect.

Compound | Potency | activity change, negative = inhibition
Cc1ccc(-c2csc3ncnc(NCCN4CCOCC4)c23)cc1 | active: 11.2 µM | –
Cc1ccc(-n2nnnc2Sc2nc([N+](=O)[O-])nn2C)cc1 | inconclusive: 35.5 µM [inhibitor, single point] | –
Cc1ccc(-n2cc(-c3ccccc3)c3c(NN4CCOCC4)ncnc32)cc1 | – | inactive: 2.83%
CCOc1cc(C(=O)Nc2ccc(C)cc2C)ccc1OCC(=O)N1CCCCC1 | – | inactive: -14.2%
COc1ccc(-c2csc(NC(=O)CSc3ccc(Br)cc3)n2)c(OC)c1 | inconclusive: 3.98 µM [inhibitor, full curve, poor fit] | –
COc1cc(/C=N/n2c(C)n[nH]c2=S)ccc1OCc1ccccc1 | inconclusive: 10 µM [activator, partial curve, poor fit] | –
COc1cccc(CCC(=O)N2CCC(n3nccc3NC(=O)C3CCOC3)CC2)c1 (configuration not stated) | inconclusive: 35.5 µM [activator, single point] | –
O=C(CN1CCCCC1)NC(=O)NC1CCCC1 | inconclusive: 3.98 µM [activator, single point] | –
Cc1cccc(C)c1NC(=S)NC(=O)c1ccccc1F | inconclusive: 0.184 µM [inhibitor, single point] | –
CC1CN(S(=O)(=O)c2cccc(C(=O)N(CCc3ccccc3)Cc3ccccc3)c2)CC(C)O1 (configuration not stated) | inconclusive: 15.8 µM [inhibitor, partial curve, poor fit] | –
O=C(CC1SC(=Nc2ccccc2)N(CCCO)C1=O)Nc1ccc(Cl)cc1 (configuration not stated) | inconclusive: 0.562 µM [inhibitor, full curve, poor fit] | –
CCC(C)c1ccc(NC(=O)C/C(C)=N/NC(=O)c2cnccn2)cc1 (configuration not stated) | – | inactive: 1.89%
O=C(COc1ccccc1)Nc1ccc(CN2CCCCC2)cc1 | inconclusive: 7.08 µM [inhibitor, partial curve] | –
Cc1cc(C)c(C(CC(=O)c2cccs2)C(C#N)C#N)c(C)c1 (configuration not stated) | inconclusive: 35.5 µM [inhibitor, single point] | –
Nc1cc(S(=O)(=O)N2CCOCC2)ccc1Oc1cccc(Br)c1 | inconclusive: 3.55 µM [inhibitor, single point] | –
Cc1csc(SCc2nnc(-c3ccc(Cl)cc3)o2)n1 | inconclusive: 1.41 µM [activator, partial curve, poor fit] | –
O=C(Nc1cnn(Cc2c(Cl)cccc2Cl)c1)c1ccc([N+](=O)[O-])cc1 | – | inactive: -5.3% [at 46.1 µM]
Cc1ccc(OCC(=O)NNC(=O)Cn2c(=O)cnc3ccccc32)cc1 | – | inactive: 14.2% [at 46.1 µM]
COc1cccc(C(=O)Nc2cccc(C(=O)N3CCOCC3)c2)c1 | inconclusive: 3.66 µM [activator, partial curve, poor fit] | –
Cc1nc(-c2cccc(NC(=O)c3ccco3)c2)cs1 | inconclusive: 14.1 µM [activator, single point] | –
O=C(NCCC(=O)N1CCCCC1)c1ccc(Br)cc1 | inconclusive: 6.31 µM [activator, full curve, poor fit] | –
COc1cccc(CSc2nnc(-c3ccc(F)cc3)o2)c1 | – | inactive: 1.38%
COc1ccc(-c2cc(-c3cccs3)nc(OC)c2C#N)cc1OC | inconclusive: 35.5 µM [inhibitor, single point] | –
Nc1nc(-c2ccccc2)cs1 | inactive | –

Compound | Potency | activity change, negative = inhibition
Oc1ccc2oc3c(c2c1/C=N/n1cnnc1)CCCC3 | – | inactive: -23.2%
OC1CCC(Nc2ncnc3sccc23)CC1 (configuration not stated) | – | inactive: 15.6% [at 46.1 µM]
CN(C)CCCN1c2ccccc2Sc2ccc(C(F)(F)F)cc21 | active: 6.31 µM | –
CCCCOc1ccc(Cc2cnc(N)nc2N)cc1 | inconclusive: 10 µM [inhibitor, partial curve] | –
Cc1nc2c3c4c(sc3n3c(SCC(=O)NCc5ccco5)nnc3n2n1)COC(C)(C)C4 | inactive | –
Cc1cccc(C(=O)O/N=C(\N)c2ccccn2)c1 | inconclusive: 2.24 µM [inhibitor, full curve, poor fit] | –
CCC1=Nc2cc(C(=O)NCC(C)c3ccccc3)ccc2Sc2ccc(C)cc21 (configuration not stated) | inconclusive: 17.8 µM [inhibitor, single point] | –
O=C1CCC(C(=O)N2CCc3ccccc3C2)CN1CCCN1CCOCC1 (configuration not stated) | – | inactive: 8.96%
Cc1cccc(C)c1Nc1oc(-c2ccccc2)nc1-c1cccc2ccccc12 | inconclusive: 0.0668 µM [activator, full curve, poor fit] | –
CN1CCN(CCOC2Cc3ccccc3Sc3ccc(Cl)cc32)CC1 (configuration not stated) | inconclusive: 25.1 µM [inhibitor, single point] | –
O=C(NCc1ccco1)c1ccccc1NS(=O)(=O)c1ccc2c(c1)OCCO2 | – | inactive: 2.98%
CCN(CC(=O)N1CCOCC1)S(=O)(=O)c1ccc(C)cc1 | inconclusive: 1.12 µM [activator, full curve, poor fit] | –
COC(=O)c1ccc(NC(=O)CCc2c(C)nc3c(-c4ccccc4)c(C)nn3c2C)cc1 | – | inactive: -6.59% [at 46.1 µM]
Cc1ccc(OCC(=O)NCC(c2ccc(Cl)cc2)N2CCCCC2)cc1 (configuration not stated) | inconclusive: 11.2 µM [inhibitor, single point] | –
Nc1sc2c(c1C(=O)NCCc1ccccc1)CCC2 | inconclusive: 3.98 µM [inhibitor, single point] | –
CCOC(=O)/C(=C\c1ccc([N+](=O)[O-])cc1)C(=O)c1cc(C(C)=O)c(Nc2ccccc2)s1 | inconclusive: 7.94 µM [inhibitor, partial curve, poor fit] | –
Cc1ccc(C)c(CN2C(=O)c3ccccc3S(=O)(=O)c3ccc(C(=O)N4CCc5ccccc54)cc32)c1 | inconclusive: 3.55 µM [inhibitor, partial curve, poor fit] | –
Cc1ccc(NS(=O)(=O)c2ccc(C(=O)N3CCN(c4ccccn4)CC3)cc2)cc1 | – | inactive: -24.2%
CC1(C)C(=O)NCCN1C(=O)CCC(=O)O | – | inactive: 8.68%
CCN(CC(=O)NCc1ccc(Cl)cc1)C(=O)CCc1ccccc1O | – | inactive: -4.41% [at 46.1 µM]
CCS(=O)(=O)N1CCC(C(=O)NCc2ccc(OC)cc2)CC1 | – | inactive: -18.6% [at 46.1 µM]
CC1C(=O)C(C)C(c2cc(Cl)ccc2O)NC1c1cc(Cl)ccc1O (configuration not stated) | inconclusive: 22.4 µM [inhibitor, single point] | –
O=C(CCc1nnc(Cc2c[nH]c3ccccc23)o1)NC(C1CC1)C1CC1 | inconclusive: 6.31 µM [activator, partial curve, poor fit] | –

Not a retest: an excerpt of the list.
Compound | Potency | activity change, negative = inhibition
CCOC(=O)/C(=C\c1ccc([N+](=O)[O-])cc1)C(=O)c1cc(C(C)=O)c(Nc2ccccc2)s1 | inconclusive: 7.94 µM [inhibitor, partial curve, poor fit] | –
Cc1ccc(C)c(CN2C(=O)c3ccccc3S(=O)(=O)c3ccc(C(=O)N4CCc5ccccc54)cc32)c1 | inconclusive: 3.55 µM [inhibitor, partial curve, poor fit] | –

Source: PubChem BioAssay AID540276 (National Center for Advancing Translational Sciences (NCATS), 2011)
